Data from PubChem BioAssay AID256 (DTP/NCI, 2004).
The list does not hold the whole screen: it is rich in T/C values a quarter to a half above the control, in often repeated tests (any T/C) and in doses without a T/C. Other doses and runs of a compound stand elsewhere. T/C gives the treated animals as a percentage of the vehicle group. Some doses have a count of surviving animals in place of a T/C: the source holds a T/C of zero for them, seemingly a mark for toxic or unscored doses. Some survivor counts are full or nearly so, which does not show that the dose was tolerated: the source hardly ever lists a survival T/C far under the control, and the zero likely stands for such cases as well. Counts of survivors are from the toxicity check (mostly the fifth day) where no day follows; animals may have died later. Schedule codes are those of the source, taken here to give the interval after Q, in days (D) or hours (H), and the number of doses after X. Where survival is the endpoint, this PubChem deposit counts one and a half times the control or more as active, and values a quarter to a half above the control carry no call in these data; other NCI protocols may use other cut-offs. Some entries hold several experiments; the results are listed from low to high. Some T/C values are followed by the survivors on the day toxicity was checked, most often the fifth; without a count, all were alive then.

Test system: CD2F1 mice, L1210 leukemia ip, survival T/C
Test: NCI In Vivo Anticancer Drug Screen. Data for tumor model L1210 Leukemia (intraperitoneal) in CD2F1 (CDF1) mice
Conditions: higher T/C = longer survival
Summary of the method: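 Tumor-bearing mice (transplanted tumor) were split into treated and vehicle control groups, and the measured endpoint of each treated group was divided by that of its vehicle controls.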

[1] = T/C endpoint: mean survival time, dose: 200.0 mg/kg/injection, schedule: Q01DX001 (ip), vehicle: saline
[2] = T/C endpoint: median survival time, dose: 100.0 mg/kg/injection, schedule: Q01DX009 (ip), vehicle: saline with Tween-80
[3] = T/C endpoint: mean survival time, dose: 400.0 mg/kg/injection, schedule: Q01DX001 (ip), vehicle: saline

`CN=[N+]([O-])C1(OC(C)=O)CCCC1` was tested, and the survivor count [1] was 4 of 6.
For `CC(=O)Nc1ccccc1OC(=O)c1ccccc1`, the survivor count (T/C endpoint: mean survival time, dose: 400.0 mg/kg/injection, schedule: Q04DX003 (ip), vehicle: saline with Tween-80) was 3 of 6.
`CC(=O)Nc1ccncn1` was tested, and the survivor count (T/C endpoint: mean survival time, dose: 100.0 mg/kg/injection, schedule: Q04DX002 (ip), vehicle: saline with Tween-80) was 1 of 3.
With `Cc1cc(N)c(O)cc1C` the survivor count (T/C endpoint: mean survival time, dose: 200.0 mg/kg/injection, schedule: Q01DX009 (ip), vehicle: saline) was 3 of 6 and the survivor count (T/C endpoint: mean survival time, dose: 400.0 mg/kg/injection, schedule: Q01DX009 (ip), vehicle: saline) was 2 of 6.
With `COC1=C(C)C(=O)C2=C(C1=O)C(COC(N)=O)C1(OC)C3C(CN21)N3C(=O)c1ccccc1` (stereo unspecified) the survivor count (T/C endpoint: mean survival time, dose: 100.0 mg/kg/injection, schedule: Q01DX001 (ip), vehicle: carboxymethylcellulose (CMC)) was 1 of 3, the survivor count (T/C endpoint: mean survival time, dose: 150.0 mg/kg/injection, schedule: Q01DX001 (ip), vehicle: carboxymethylcellulose (CMC)) was 0 of 3 and the survivor count (T/C endpoint: mean survival time, dose: 225.0 mg/kg/injection, schedule: Q01DX001 (ip), vehicle: carboxymethylcellulose (CMC)) was 0 of 3.
`Oc1ccc(O)c(CCCCCc2cc(O)ccc2O)c1` was tested, and the survivor count (T/C endpoint: mean survival time, dose: 400.0 mg/kg/injection, schedule: Q01DX009 (ip), vehicle: other) was 0 of 6.
For `O=C(N/N=C\c1c(Cl)cccc1Cl)c1ccccc1`, the survivor count (T/C endpoint: mean survival time, dose: 400.0 mg/kg/injection, schedule: Q01DX009 (ip), vehicle: Klucel (hydroxypropylcellulose) (HPC)) was 0 of 6.
For `O=C(O)c1cnc(Cl)nc1Nc1ccccc1I`, the survivor count (T/C endpoint: mean survival time, dose: 100.0 mg/kg/injection, schedule: Q01DX001 (ip), vehicle: saline with Tween-80) was 6 of 6 and the survivor count (T/C endpoint: mean survival time, dose: 400.0 mg/kg/injection, schedule: Q01DX001 (ip), vehicle: saline with Tween-80) was 1 of 6.
With `O=C(CCCN1CCC(C(O)c2ccc(F)cc2)CC1)c1ccc(F)cc1` (stereo unspecified) the T/C (T/C endpoint: median survival time, dose: 12.5 mg/kg/injection, schedule: Q01DX009 (ip), vehicle: saline with Tween-80) was 127 % of control, the T/C (T/C endpoint: median survival time, dose: 25.0 mg/kg/injection, schedule: Q01DX009 (ip), vehicle: saline with Tween-80) was 129 and 137 % of control and the T/C (T/C endpoint: median survival time, dose: 50.0 mg/kg/injection, schedule: Q01DX009 (ip), vehicle: saline with Tween-80) was 133 % of control [5 of 6 alive]. For the same compound, the T/C [2] was 135 % of control, the survivor count [2] was 0 of 6 and the T/C (T/C endpoint: median survival time, dose: 100.0 mg/kg/injection, schedule: Q01DX009 (oral), vehicle: saline with Tween-80) was 127 % of control. The survivor count (T/C endpoint: median survival time, dose: 100.0 mg/kg/injection, schedule: Q06HX014 (oral), vehicle: saline with Tween-80) was 5 of 10, the survivor count (T/C endpoint: median survival time, dose: 150.0 mg/kg/injection, schedule: Q01DX009 (oral), vehicle: saline with Tween-80) was 6 of 10 and the survivor count (T/C endpoint: median survival time, dose: 200.0 mg/kg/injection, schedule: Q01DX009 (oral), vehicle: saline with Tween-80) was 4 of 7. For the same compound, the survivor count (T/C endpoint: median survival time, dose: 400.0 mg/kg/injection, schedule: Q01DX009 (oral), vehicle: saline with Tween-80) was 1 of 7 and the survivor count (T/C endpoint: median survival time, dose: 400.0 mg/kg/injection, schedule: Q04DX003 (oral), vehicle: saline with Tween-80) was 5 of 10.
`CCS(=O)(=O)C(CCC#N)(CCC#N)S(=O)(=O)CC` was tested, and the survivor count [3] was 1 of 6.
For `CCCCCC(CN(C)C)C(/C=C/c1ccccc1)OC(=O)c1ccc([N+](=O)[O-])cc1` (stereo unspecified), the survivor count (T/C endpoint: mean survival time, dose: 400.0 mg/kg/injection, schedule: Q01DX009 (ip), vehicle: saline with Tween-80) was 3 of 6.
In the case of `OCC1OC(Nc2ncnc3snnc23)C(O)C1O` (stereo unspecified), the T/C (T/C endpoint: mean survival time, dose: 100.0 mg/kg/injection, schedule: Q01DX001 (ip), vehicle: saline) is reported as 128 % of control, the T/C (T/C endpoint: mean survival time, dose: 100.0 mg/kg/injection, schedule: Q04DX003 (ip), vehicle: saline) is reported as 140 % of control and the T/C [1] is reported as 125 % of control. For the same compound, the T/C [3] was 136 % of control [2 of 2 alive].
In the case of `CC(O)C[As](=O)(O)c1ccccc1Cl` (stereo unspecified), the survivor count (T/C endpoint: mean survival time, dose: 25.0 mg/kg/injection, schedule: Q04DX003 (ip), vehicle: saline) is reported as 2 of 6.
For `CCCC(=O)C1=C(O)C(CC2=C(O)C(C)(C)C(=O)C(C(=O)CCC)=C2O)=C(O)C(C)(C)C1=O`, the survivor count [3] was 0 of 6.
With `C[N+](C)(C)Cc1ccc([N+](=O)[O-])cc1` the survivor count (T/C endpoint: mean survival time, dose: 75.0 mg/kg/injection, schedule: Q01DX001 (ip), vehicle: saline) was 2 of 6, the survivor count (T/C endpoint: mean survival time, dose: 150.0 mg/kg/injection, schedule: Q01DX001 (ip), vehicle: saline) was 0 of 6 and the survivor count (T/C endpoint: mean survival time, dose: 300.0 mg/kg/injection, schedule: Q01DX001 (ip), vehicle: saline) was 0 of 6.
`NC(=O)C1(Cl)CC2C=CC1C2` (stereo unspecified) was tested, and the survivor count (T/C endpoint: mean survival time, dose: 200.0 mg/kg/injection, schedule: Q04DX003 (ip), vehicle: saline) was 1 of 6 and the survivor count (T/C endpoint: mean survival time, dose: 400.0 mg/kg/injection, schedule: Q04DX003 (ip), vehicle: saline) was 1 of 6.
